This note sets out measurements from publication PMC7674490.

Amino acid sequences for entries named in this document (tags omitted). Residues count along the entry.
UniProt Q80YE7: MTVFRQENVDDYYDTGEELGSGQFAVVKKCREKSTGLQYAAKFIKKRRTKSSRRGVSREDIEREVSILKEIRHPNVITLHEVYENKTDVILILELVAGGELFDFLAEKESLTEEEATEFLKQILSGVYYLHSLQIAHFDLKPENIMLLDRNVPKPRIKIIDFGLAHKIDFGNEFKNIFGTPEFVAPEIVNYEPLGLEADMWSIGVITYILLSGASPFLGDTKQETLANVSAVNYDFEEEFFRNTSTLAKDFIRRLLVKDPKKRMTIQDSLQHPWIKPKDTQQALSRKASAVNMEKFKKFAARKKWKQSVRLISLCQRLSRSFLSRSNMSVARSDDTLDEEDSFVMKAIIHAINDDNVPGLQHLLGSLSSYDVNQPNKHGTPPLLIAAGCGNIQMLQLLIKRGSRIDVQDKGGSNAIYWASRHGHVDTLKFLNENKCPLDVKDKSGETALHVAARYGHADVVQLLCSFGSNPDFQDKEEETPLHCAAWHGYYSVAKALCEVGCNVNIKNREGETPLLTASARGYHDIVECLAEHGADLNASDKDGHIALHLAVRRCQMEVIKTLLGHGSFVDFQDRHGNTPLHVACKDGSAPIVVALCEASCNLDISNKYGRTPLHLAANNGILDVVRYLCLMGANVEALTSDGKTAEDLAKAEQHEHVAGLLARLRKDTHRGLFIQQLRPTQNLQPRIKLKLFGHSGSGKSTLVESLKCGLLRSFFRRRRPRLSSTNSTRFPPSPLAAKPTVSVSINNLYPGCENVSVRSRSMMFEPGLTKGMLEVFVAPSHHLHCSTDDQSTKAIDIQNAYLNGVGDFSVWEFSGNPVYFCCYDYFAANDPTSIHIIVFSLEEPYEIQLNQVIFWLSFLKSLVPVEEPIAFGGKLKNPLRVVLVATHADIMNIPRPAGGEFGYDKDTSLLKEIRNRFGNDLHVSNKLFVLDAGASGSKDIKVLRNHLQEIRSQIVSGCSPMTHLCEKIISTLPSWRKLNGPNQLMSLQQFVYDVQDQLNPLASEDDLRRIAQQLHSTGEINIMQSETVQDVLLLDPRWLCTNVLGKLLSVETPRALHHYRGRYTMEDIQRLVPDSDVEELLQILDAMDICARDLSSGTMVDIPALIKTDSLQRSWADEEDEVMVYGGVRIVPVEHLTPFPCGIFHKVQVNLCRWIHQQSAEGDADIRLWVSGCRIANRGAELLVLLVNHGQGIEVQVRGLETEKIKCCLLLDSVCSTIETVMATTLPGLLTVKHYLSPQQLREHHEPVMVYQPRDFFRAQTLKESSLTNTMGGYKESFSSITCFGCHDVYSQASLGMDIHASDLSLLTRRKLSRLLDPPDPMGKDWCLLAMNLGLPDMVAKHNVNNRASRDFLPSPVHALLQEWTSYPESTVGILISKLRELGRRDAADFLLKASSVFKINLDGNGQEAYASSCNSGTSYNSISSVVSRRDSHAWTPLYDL
UniProt Q01097, residues 27-1482: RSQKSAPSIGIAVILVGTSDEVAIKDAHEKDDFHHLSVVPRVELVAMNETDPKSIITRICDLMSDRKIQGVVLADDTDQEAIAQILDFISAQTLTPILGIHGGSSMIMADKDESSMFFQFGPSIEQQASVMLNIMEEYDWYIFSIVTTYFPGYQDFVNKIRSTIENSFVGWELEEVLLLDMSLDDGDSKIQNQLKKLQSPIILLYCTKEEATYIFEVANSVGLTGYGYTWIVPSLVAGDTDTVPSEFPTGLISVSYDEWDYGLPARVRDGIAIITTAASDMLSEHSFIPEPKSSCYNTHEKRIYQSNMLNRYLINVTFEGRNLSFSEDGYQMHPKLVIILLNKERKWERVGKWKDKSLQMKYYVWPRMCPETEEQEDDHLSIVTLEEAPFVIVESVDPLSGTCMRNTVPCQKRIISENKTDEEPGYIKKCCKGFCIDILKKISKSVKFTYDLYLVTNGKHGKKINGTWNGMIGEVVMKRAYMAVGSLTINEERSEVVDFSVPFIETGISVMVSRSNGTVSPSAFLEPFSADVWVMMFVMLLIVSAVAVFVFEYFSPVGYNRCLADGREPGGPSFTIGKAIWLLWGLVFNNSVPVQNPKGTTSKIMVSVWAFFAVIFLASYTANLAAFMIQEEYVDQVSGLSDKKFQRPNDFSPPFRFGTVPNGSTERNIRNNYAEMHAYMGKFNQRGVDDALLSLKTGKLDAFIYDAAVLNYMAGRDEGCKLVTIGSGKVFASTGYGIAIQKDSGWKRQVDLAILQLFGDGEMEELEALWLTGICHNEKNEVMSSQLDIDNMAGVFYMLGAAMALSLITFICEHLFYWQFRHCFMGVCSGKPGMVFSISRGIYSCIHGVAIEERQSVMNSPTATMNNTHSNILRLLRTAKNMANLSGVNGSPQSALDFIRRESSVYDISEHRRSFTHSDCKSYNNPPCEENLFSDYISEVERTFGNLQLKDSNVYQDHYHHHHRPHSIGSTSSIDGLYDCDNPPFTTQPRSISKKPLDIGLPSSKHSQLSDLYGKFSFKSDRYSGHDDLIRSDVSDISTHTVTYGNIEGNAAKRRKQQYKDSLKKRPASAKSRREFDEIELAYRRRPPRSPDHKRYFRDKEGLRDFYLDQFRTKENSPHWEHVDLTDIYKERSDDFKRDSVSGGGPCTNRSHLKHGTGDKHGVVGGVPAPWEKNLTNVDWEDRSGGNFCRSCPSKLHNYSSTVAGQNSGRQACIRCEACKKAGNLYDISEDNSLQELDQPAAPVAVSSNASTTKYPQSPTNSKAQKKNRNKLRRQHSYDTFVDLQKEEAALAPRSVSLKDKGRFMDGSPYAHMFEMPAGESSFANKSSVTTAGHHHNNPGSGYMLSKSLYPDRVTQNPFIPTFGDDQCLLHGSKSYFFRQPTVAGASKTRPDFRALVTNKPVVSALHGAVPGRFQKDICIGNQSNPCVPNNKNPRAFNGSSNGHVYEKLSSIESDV

Results are given in words; binding and its absence hold for the method and conditions named. Binding seen in cells or lysates may run through a third protein. Some results given as binding are weak or reduced against the parent protein; the word gives no strength.

In the assay the target is Death-associated protein kinase 1 (mouse (endogenous in cortical tissue)) (UniProt Q80YE7). Nature of the assay: co-IP; rabbit anti-DAPK1 antibody on Protein G Dynabeads; WT and YAC128 mouse cortical tissue in gentle lysis buffer (50 mM Tris, 150 mM NaCl, 1% Igepal), overnight at 4°C; blotted for DAPK1 and GluN2B; control rabbit IgG.

Turning to “NMDA receptor subunit type 2B (from UniProt Q01097 27-1482)”, the binding entry is given as “binds”.
